Laboratory results: PubChem BioAssay AID1053208 (Peter MacCallum Cancer Centre, 2014)
Purpose: 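Synthetic lethal interactions between gene loss and doxorubicin in osteosarcoma cells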 (primary screen). System: mouse osteosarcoma cells, early-passage culture from an engineered mouse model of fibroblastic bone tumour. Knock-down reagent: siRNA pool against mouse genes, 40 nM. Timing: about 120 h (48 h before drug, then 72 h with drug). Treatment: doxorubicin 100 nM for 72 h, roughly 30-40% inhibitory dose. Read-out: 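Viability read as ATP luminescence after 72 h of 100 nM doxorubicin or none, duplicate wells averaged, scaled to non-targeting siRNA, then expressed as robust z-scores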. Reading the numbers: viability z-score with doxorubicin: higher = more viable cells under doxorubicin; viability z-score without drug: higher = more viable cells with knock-down alone. Rule for the call: 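a pool counts as active when its viability z-score with doxorubicin is -2 or below and its z-score without drug lies between -2 and 2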.
Here is an unselected part of about 17,000 reagents. In the full data, 788 (4.7%) are marked active. 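Calls rest on z-score classes alone; an extra cut-off of viability at most 70% of control was not applied to them.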 A number with no mark means an inactive call. The numbers tell different reagents against one gene apart. Further read-outs or replicates are left out here.

Against Synb (GeneID 239167), the values are combined z-score class no change with or without drug; viability z-score with doxorubicin -0.22; viability z-score without drug -0.51.
Against Fxn (GeneID 14297) the deposit lists combined z-score class no change with or without drug; viability z-score with doxorubicin -1.35; viability z-score without drug -0.51.
Map2k5 (GeneID 23938) scored combined z-score class high cell count without drug only; viability z-score with doxorubicin 1.69; viability z-score without drug 2.87.
For Cd72 (GeneID 12517) the deposit lists combined z-score class no change with or without drug; viability z-score with doxorubicin -1.12; viability z-score without drug -0.51.
Against Lmcd1 (GeneID 30937), the entry reads combined z-score class no change with or without drug; viability z-score with doxorubicin 1.24; viability z-score without drug 0.84.
Suv39h1 (GeneID 20937) gave combined z-score class no change with or without drug; viability z-score with doxorubicin 0; viability z-score without drug 0.84.
Depletion of Trim32 (GeneID 69807) came out at: combined z-score class no change with or without drug; viability z-score with doxorubicin -0.45; viability z-score without drug 0.51.
After knock-down of Tmem127 (GeneID 69470), the record shows combined z-score class no change with or without drug; viability z-score with doxorubicin 0.56; viability z-score without drug 1.52.
Silencing of 4921509C19Rik (GeneID 381393) resulted in: combined z-score class no change with or without drug; viability z-score with doxorubicin 0; viability z-score without drug 1.01.
With knock-down of Kdm5b (GeneID 75605), the record shows combined z-score class no change with or without drug; viability z-score with doxorubicin -0.45; viability z-score without drug -0.17.
For Itpk1 (GeneID 217837), the values are combined z-score class no change with or without drug; viability z-score with doxorubicin -1.35; viability z-score without drug -1.18.
After knock-down of Spryd7 (GeneID 66674) the results were combined z-score class low cell count with doxorubicin only (active); viability z-score with doxorubicin -2.92; viability z-score without drug -1.18.
For Meis3 (GeneID 17537), the entry reads combined z-score class no change with or without drug; viability z-score with doxorubicin -0.34; viability z-score without drug -0.17.
Silencing of Tmem161b (GeneID 72745) resulted in: combined z-score class no change with or without drug; viability z-score with doxorubicin -1.35; viability z-score without drug 0.67.
Helz2 (GeneID 229003) scored combined z-score class high cell count with doxorubicin only; viability z-score with doxorubicin 2.59; viability z-score without drug 1.52.
Knock-down of Kif1c (GeneID 16562) resulted in: combined z-score class no change with or without drug; viability z-score with doxorubicin -0.67; viability z-score without drug 0.17.
Depletion of Nudt22 (GeneID 68323) gave: combined z-score class high cell count with and without drug; viability z-score with doxorubicin 2.81; viability z-score without drug 2.02.
Against Taok3 (GeneID 330177), the entry reads combined z-score class no change with or without drug; viability z-score with doxorubicin -0.56; viability z-score without drug -0.67.

Targets above whose target name starts with S or s (3):
Synb (GeneID 239167): combined z-score class = no change with or without drug; viability z-score with doxorubicin = -0.22; viability z-score without drug = -0.51
Suv39h1 (GeneID 20937): combined z-score class = no change with or without drug; viability z-score with doxorubicin = 0; viability z-score without drug = 0.84
Spryd7 (GeneID 66674): combined z-score class = low cell count with doxorubicin only (active); viability z-score with doxorubicin = -2.92; viability z-score without drug = -1.18

The listing continues.
With knock-down of Tspan10 (GeneID 208634), the record shows combined z-score class no change with or without drug; viability z-score with doxorubicin 1.12; viability z-score without drug 0.51.
Against Nap1l1 (GeneID 53605), the values are combined z-score class no change with or without drug; viability z-score with doxorubicin -0.45; viability z-score without drug -0.84.
After knock-down of Ptgfr (GeneID 19220), the record shows combined z-score class no change with or without drug; viability z-score with doxorubicin -0.22; viability z-score without drug -1.18.
Tpd52 (GeneID 21985) gave combined z-score class no change with or without drug; viability z-score with doxorubicin 0; viability z-score without drug 0.17.
Silencing of Grn (GeneID 14824) gave: combined z-score class low cell count with doxorubicin only (active); viability z-score with doxorubicin -2.02; viability z-score without drug -0.84.
Depletion of Mecom (GeneID 14013) #1 gave: combined z-score class no change with or without drug; viability z-score with doxorubicin -0.45; viability z-score without drug 0.51.
After knock-down of Mecom (GeneID 14013) #2, the screen gave combined z-score class no change with or without drug; viability z-score with doxorubicin -0.9; viability z-score without drug -0.17.
Silencing of Habp2 (GeneID 226243) resulted in: combined z-score class no change with or without drug; viability z-score with doxorubicin 0.22; viability z-score without drug -0.34.
Against Mapk8ip1 (GeneID 19099), the entry reads combined z-score class no change with or without drug; viability z-score with doxorubicin 0.22; viability z-score without drug 0.
With knock-down of Tent2 (GeneID 100715), the record shows combined z-score class no change with or without drug; viability z-score with doxorubicin 0.22; viability z-score without drug 0.51.
